# Reference: PubChem BioAssay AID2685 (National Center for Advancing Translational Sciences (NCATS), 2010)
# Some of the results follow. The main result of the screen is listed elsewhere. These columns were measured beside it and carry no call. Most of these compounds were active or inconclusive in the main read-out, so they are no random draw. Words in brackets tell the shape of the fitted curve; partial curves, single points and poor fits give uncertain potencies.
# Test: qHTS Assay for Lipid Storage Modulators in Drosophila S3 Cells;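 on cell number change: cells counted by Cell Tracker Red CMTPX staining in the red channel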
# Conditions: BODIPY lipid droplet fluorescence, 18-24 h; for cell number change: measured here: cell count max response, cells fed with added oleic acid
# How it was run: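 Laser-scanning cytometry quantifies lipid droplet accumulation (500–530 nm total intensity; droplet/cell object ratio) in oleic acid-fed (400 uM added) Drosophila S3 cells treated with a concentration series. 20 uM Triacsin C defined 100% inhibition.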
# [1] = measured here: lipid fluorescence (Fed channel) AC50, cells fed with added oleic acid
# [2] = measured here: cell number channel AC50, cells fed with added oleic acid
Compound,AC50 [1],cell number change [%],AC50 [2]
CC(C(=O)NC1CCCCC1)N1C(=O)C2C3C=CC(C3)C2C1=O (configuration not stated),"0.082 µM [falling, full curve, poor fit]",,
CCOc1ccc(C(=O)NC(C(=O)NCCc2ccc(S(N)(=O)=O)cc2)C(C)C)cc1 (configuration not stated),,14.8,
O=C(CSc1nnc(Cc2cc(=O)[nH]c(=O)[nH]2)n1-c1ccccc1)NCC1CCCO1 (configuration not stated),"29.1 µM [falling, single point]",-12.5,
C/C(N)=C(/C#N)C(=O)CSc1nnc(COc2ccccc2Cl)o1,"0.259 µM [rising, full curve, poor fit]",9.88,
Cc1occc1C(=O)N1CCC2(CCCN(Cc3ccc(F)c(F)c3)C2)C1 (configuration not stated),,38.4,"23.1 µM [rising, partial curve, poor fit]"
O=C(Nc1c2c(nn1-c1ccc([N+](=O)[O-])cc1)CS(=O)(=O)C2)C1CC1,"29.1 µM [rising, single point]",6.13,
Cc1ccc(S(=O)(=O)Nc2ccccc2C(=O)N2CCOCC2)cc1,,-11.3,
COc1ccc(NC(=S)N2CCCC2)c(OC)c1,,19.9,
COc1ccc(N2CCN(C(=S)NC(=O)c3cccs3)CC2)c([N+](=O)[O-])c1,,24.1,"1.3 µM [rising, full curve, poor fit]"
CC(OC(=O)CCCc1c[nH]c2ccccc12)C(=O)Nc1ccc(S(N)(=O)=O)cc1 (configuration not stated),"0.00517 µM [rising, full curve, poor fit]",7.02,
C=CCN(C#N)c1nc(OC)nc(N2CCCC2)n1,"1.64 µM [rising, partial curve]",21.8,
CCCC(=O)N(Cc1cccnc1)c1nc2c(OC)ccc(Cl)c2s1,,17.7,
CC(=O)Nc1cc(-c2ccc(F)cc2)[nH]n1,,-32.6,"13 µM [falling, single point]"
Cn1cccc1/C=N/NC(=O)c1cccc(OC(F)(F)C(F)F)c1,"5.8 µM [rising, partial curve]",42.1,"2.91 µM [rising, partial curve]"
COc1ccccc1OCCC(=O)OCC(=O)Nc1ncc(Cl)cc1Cl,"29.1 µM [rising, single point]",-0.845,
C/C(=N\Nc1ccc(S(N)(=O)=O)cc1[N+](=O)[O-])c1cccnc1,"0.1 µM [falling, full curve, poor fit]",26.3,
COc1ccc(-c2cc(C(=O)Nc3ccc(Br)cc3)no2)cc1,"0.58 µM [rising, single point]",-2.78,
O=C(COc1ccc(Br)cc1)Nc1ccccc1C(=O)NC1CC1,,,"2.59 µM [rising, partial curve]"
O=C(CCNS(=O)(=O)c1ccc(Cl)cc1)Nc1ccncc1,,1.26,
COCc1nnc(NC(=O)c2ccc3c(c2)OCO3)s1,,47.7,"29.1 µM [rising, single point]"

Compound,AC50 [1],cell number change [%],AC50 [2]
C=Cc1ccc(C(=O)N2CCCC(Nc3ccc4c(c3)OCCO4)C2)cc1 (configuration not stated),,4.42,
O=C(C1CCC1)N1CCN(c2ccc(C(F)(F)F)cc2[N+](=O)[O-])CC1,"0.651 µM [falling, full curve, poor fit]",,
Cc1ccc(CN2C(=O)CCC2C(=O)NC2CCCC2)cc1 (configuration not stated),"23.1 µM [falling, partial curve]",-10.8,"2.31 µM [falling, partial curve, poor fit]"
CCc1cc(C(=O)N=Nc2c(O)[nH]c3c(Br)cc(Br)cc23)c2ccccc2n1,"0.259 µM [rising, full curve, poor fit]",21.5,"0.82 µM [rising, full curve, poor fit]"
COc1ccccc1CNC(=O)COC(=O)c1ccc(C)c(S(=O)(=O)N2CCCCC2)c1,"16.4 µM [falling, single point]",1.66,
O=C(NC1CCCC1)C(c1ccccc1)N(C(=O)c1csnn1)C1CCCC1 (configuration not stated),,-11.5,
COc1cccc(CC(=O)Nc2ccc(S(=O)(=O)N3CCOCC3)cc2)c1,"0.291 µM [falling, partial curve, poor fit]",,
COCCN(C(=O)COC(=O)Cc1c[nH]c2ccccc12)c1c(N)n(Cc2ccccc2)c(=O)[nH]c1=O,,10.1,
CC(C)[C@]1(c2ccccc2)ON(c2ccccc2C(F)(F)F)C1=O,"0.731 µM [rising, full curve]",-77.2,"7.31 µM [falling, single point]"
CC(C)C(=O)Nc1ccc(N2CCN(S(C)(=O)=O)CC2)cc1,,-72.5,"32.6 µM [falling, single point]"
Cc1csc(NC(=O)CSc2nnc(-c3ccoc3C)n2Cc2ccco2)n1,"0.461 µM [rising, full curve]",-10.1,
O=C(O)c1ccc(N2C(=O)CC(N3CCN(c4cccc(C(F)(F)F)c4)CC3)C2=O)cc1 (configuration not stated),"0.146 µM [falling, partial curve, poor fit]",-0.787,
Cc1ccc(S(=O)(=O)NC2CCCCC2)cc1C(=O)N1CCC(C(N)=O)CC1,"29.1 µM [falling, single point]",-51,
CN(C)C(=O)c1cc(S(=O)(=O)N(C)C)c(Cl)cc1N1CCCC1,"1.16 µM [falling, single point]",-2.25,
O=C(NCc1ccccn1)c1ccc(N2CCCC2)c([N+](=O)[O-])c1,,-5.13,
NNS(=O)(=O)c1ccc2c(c1)Cc1cc(S(=O)(=O)NN)ccc1-2,"29.1 µM [rising, single point]",16.7,
N/C(Cc1cccc2ccccc12)=N\OC(=O)c1cccs1,"2.59 µM [falling, single point]",-14,
CN1C(=O)c2cccc3c(N)ccc(c23)C1=O,"16.4 µM [falling, partial curve]",-94.3,"29.1 µM [falling, single point]"
C#CCNC(=O)c1cccn1-c1ncc(C(F)(F)F)cc1Cl,"0.00461 µM [falling, full curve, poor fit]",15.6,
CCC(=O)Oc1ccc(NC(=O)CSCc2ccccc2)cc1,"2.91 µM [falling, single point]",-25.1,

# Individual results from the list:
# Under cell number change [%], COCCN(C(=O)COC(=O)Cc1c[nH]c2ccccc12)c1c(N)n(Cc2ccccc2)c(=O)[nH]c1=O is entered as 10.1
# Under AC50 [2], CC(C)[C@]1(c2ccccc2)ON(c2ccccc2C(F)(F)F)C1=O is entered as 7.31 µM [falling, single point]
# Under AC50 [1], C#CCNC(=O)c1cccn1-c1ncc(C(F)(F)F)cc1Cl is entered as 0.00461 µM [falling, full curve, poor fit]
